Results taken from the supplement of paper PMC5949888.
Most values lie at the floor of the assay. Slopes are relative: functional sequences can read slightly below zero.

The substances below were run on Saccharomyces cerevisiae PS128 hsf1 delta, HSF1(1-493) fusion (assay: growth estimate (transactivation domain function in HSF1 fusion, heat-shock survival) (a.u. (slope of normalised read count over time)); higher = stronger growth at 37°C, i.e. more transactivation activity). Conditions: library: random library.
Description: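 Random 60-nt DNA library encoding peptides of up to 20 aa, fused to the C-terminus of yeast HSF1 residues 1-493 (C-terminal TAD deleted) and expressed from the native HSF1 promoter on a CEN plasmid in hsf1-deleted S. cerevisiae PS128. Cells were selected at 37°C on -trp 5-FOA plates for 0, 2, 4, 6 and 8 days and amplicons were sequenced. Growth estimate is the slope of a robust linear fit of total-sum-normalised read counts (normalised to the first time point) over time, using at least 2 replicates. Sequences are classed functional (TAD activity) above a threshold of -0.13, set from stop-codon control sequences.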

| Substance | growth estimate |
| --- | --- |
| EDDSICNKHGRVGST | < -0.25 |
| EDEIIDGIPQPKQWDL | < -0.25 |
| EDHSGDRTSGYELITHQQTY | < -0.25 |
| EDIRRRLLGGLGRGSG | < -0.25 |
| EDLGYCRGLPSWELSL | -0.159 |
| EDLIVEDKRKGGILARTSAS | < -0.25 |
| EDLLVG | -0.243 |
| EDNQDPGVVSVATRKRI | < -0.25 |
| EDSGQETSEGLISGNIVSFS | -0.198 |
| EDVREPGLYMYPHRRTSKEP | < -0.25 |
| EEALEPPRRREPLRAYGRTP | < -0.25 |
| EEDP | < -0.25 |
| EEDYQRWTGTLRSR | < -0.25 |
| EEGRGCTLRPGRQ | < -0.25 |
| EEGTCAVRGLNRTFPCMRVA | < -0.25 |
| EEIFRRFYLFR | < -0.25 |
| EEKHILATMDRT | < -0.25 |
| EEKRRRARTEVTLRVTGEGR | < -0.25 |
| EESAGARVPCTPGAHQIARC | < -0.25 |
| EESLP | < -0.25 |
| EESLPI | < -0.25 |
| EESRRNGQGPSLYFLTRGGM | < -0.25 |
| EFAVPVAWDRRSNISAVLAV | < -0.25 |
| EFCT | < -0.25 |
| EFEDGSEFQFIRRRRSKGSG | < -0.25 |

| Substance | growth estimate |
| --- | --- |
| EFEPMGLTSVKSGDATVSK | < -0.25 |
| EFHSTW | < -0.25 |
| EFIGESIVFSKTLKPAGFLQ | < -0.25 |
| EFLL | < -0.25 |
| EFLLMF | < -0.25 |
| EFMFYYLVINPSPGSFGGDW | < -0.25 |
| EFQDTSS | < -0.25 |
| EFSFVP | < -0.25 |
| EFSRVRRQLQTSLKSG | < -0.25 |
| EGA | < -0.25 |
| EGAWC | < -0.25 |
| EGFLGTSCVFT | < -0.25 |
| EGFTLGTSRLQ | < -0.25 |
| EGGD | < -0.25 |
| EGGKTLAGSQLPKA | < -0.25 |
| EGGPRFPSRHKKNFSVWPVA | < -0.25 |
| EGGRVGRGGMATGRGP | < -0.25 |
| EGGVTQTLVMEAEDHGTHSL | < -0.25 |
| EGIFGKSRAERTG | < -0.25 |
| EGILRDN | < -0.25 |
| EGKHFTSARGDVRPRDTAIH | < -0.25 |
| EGKPQPLAGAER | < -0.25 |
| EGLLSHDASRRHRA | < -0.25 |
| EGNCLIKSVCNNYRKSGLRC | < -0.25 |
| EGNFALCWCQNGFRRSQVST | < -0.25 |

Part of the list above, bar-delimited.
Substance | growth estimate
EGLLSHDASRRHRA | < -0.25
EGNCLIKSVCNNYRKSGLRC | < -0.25

Reprinted from the results shown (2 entries):

| Substance | growth estimate |
| --- | --- |
| EESLP | < -0.25 |
| EESLPI | < -0.25 |

The listing continues:

| Substance | growth estimate |
| --- | --- |
| EGPSAPEVSRGLLIERLLAC | < -0.25 |
| EGPSI | < -0.25 |
| EGQHHGEWSADTNGGLCRQR | < -0.25 |
| EGRK | < -0.25 |
| EGRLGTWTLPHC | < -0.25 |
| EGRVPPQPCSDP | < -0.25 |
| EGSHRPYTEYQDLFDRSVTT | < -0.25 |
| EGSRGAHSRSIRRSRYALKL | < -0.25 |
| EGTLIGPYLNEVHRLEPTDF | < -0.25 |
| EGTWC | < -0.25 |
| EGTWIIRVYTKFSEALGTSA | < -0.25 |
| EGVGDRTWLVLYGQLYTHDG | < -0.25 |
| EGYRMPAALLSSDIRGGVRS | < -0.25 |
| EHALRDCDTGFEMRWSSSFA | < -0.25 |
| EHDWVPGNIRSLPQIILQTM | < -0.25 |
| EHKLD | < -0.25 |
| EHNGRIRSPLEPFSK | < -0.25 |
| EHPLGRMELEFHRRGEVFTG | < -0.25 |
| EHRVKIDLLLCLRAICHRRL | < -0.25 |
| EHVGNAG | < -0.25 |
| EHVRQLPSGLKPGRRIFLSP | < -0.25 |
| EHYSLPFGESMRGKKGG | < -0.25 |
| EHYTIRFGVRVYCGAIFGGA | < -0.25 |
